From the supplement of paper PMC7661543
± gives the standard deviation of the averaged measurements. Differences between knockout arms are mostly noise.

Test system: SKBR3
Test: relative cell number vs DMSO control (72 h) (% of DMSO); higher = less growth inhibition (more cells)
Method: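 QMAP-Seq: a pool of 5 breast cancer cell lines (ZR-75-1, SKBR3, HCC-38, MDA-MB-231, BT-20), each carrying 12 doxycycline-inducible Cas9 sgRNA perturbations (11 knockouts plus non-targeting sgNT), was treated with compounds for 72 h at four 10-fold doses (10 nM-10 uM or 1 nM-1 uM range). Barcodes were amplified and sequenced, and cell number was interpolated from 293T spike-in standard curves. The result is expressed as % of the median of DMSO wells. Two biological replicates.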

[1] = sgRNA knockout: sgATF3, 1000 nM
[2] = sgRNA knockout: sgATF3, 10000 nM
[3] = sgRNA knockout: sgATF4, 1000 nM
[4] = sgRNA knockout: sgATF4, 10000 nM
[5] = sgRNA knockout: sgATF6, 1000 nM
[6] = sgRNA knockout: sgATF6, 10000 nM
[7] = sgRNA knockout: sgATG7, 1000 nM
[8] = sgRNA knockout: sgATG7, 10000 nM
[9] = sgRNA knockout: sgERN1, 1000 nM
[10] = sgRNA knockout: sgERN1, 10000 nM
[11] = sgRNA knockout: sgHSF1, 1000 nM
[12] = sgRNA knockout: sgHSF1, 10000 nM
[13] = sgRNA knockout: sgHSF2, 1000 nM
[14] = sgRNA knockout: sgHSF2, 10000 nM
[15] = sgRNA knockout: sgKEAP1, 100 nM
[16] = sgRNA knockout: sgKEAP1, 1000 nM
[17] = sgRNA knockout: sgKEAP1, 10000 nM
[18] = sgRNA knockout: sgNFE2L2, 10 nM
[19] = sgRNA knockout: sgNFE2L2, 100 nM
[20] = sgRNA knockout: sgNFE2L2, 1000 nM
[21] = sgRNA knockout: sgNFE2L2, 10000 nM
[22] = sgRNA knockout: sgSLC35F2, 10 nM
[23] = sgRNA knockout: sgSLC35F2, 100 nM
[24] = sgRNA knockout: sgSLC35F2, 1000 nM
[25] = sgRNA knockout: sgSLC35F2, 10000 nM
[26] = sgRNA knockout: sgXBP1, 1000 nM
[27] = sgRNA knockout: sgXBP1, 10000 nM

C[C@]1(O)C[C@@H](c2nc(-c3ccc4ccc(-c5ccccc5)nc4c3)c3c(N)nccn32)C1 [Linsitinib]
relative cell number (sgRNA knockout: sgATF3, 10 nM): 110 ± 23 | relative cell number (sgRNA knockout: sgATF3, 100 nM): 110 ± 2.3 | relative cell number [1]: 90 ± 3.9 | relative cell number [2]: 81.4 ± 1.8 | relative cell number (sgRNA knockout: sgATF4, 10 nM): 116 ± 23 | relative cell number (sgRNA knockout: sgATF4, 100 nM): 97.7 ± 5.4 | relative cell number [3]: 77.1 ± 3.7 | relative cell number [4]: 86.58 ± 0.57 | relative cell number (sgRNA knockout: sgATF6, 10 nM): 93.4 ± 21 | relative cell number (sgRNA knockout: sgATF6, 100 nM): 88.3 ± 19 | relative cell number [5]: 105 ± 10 | relative cell number [6]: 83.5 ± 4.4 | relative cell number (sgRNA knockout: sgATG7, 10 nM): 120 ± 14 | relative cell number (sgRNA knockout: sgATG7, 100 nM): 98.1 ± 26 | relative cell number [7]: 75.2 ± 4.7 | relative cell number [8]: 69.6 ± 3.3 | relative cell number (sgRNA knockout: sgERN1, 10 nM): 75.3 ± 19 | relative cell number (sgRNA knockout: sgERN1, 100 nM): 111 ± 26 | relative cell number [9]: 103 ± 12 | relative cell number [10]: 95.9 ± 20 | relative cell number (sgRNA knockout: sgHSF1, 10 nM): 99.4 ± 21 | relative cell number (sgRNA knockout: sgHSF1, 100 nM): 99.3 ± 18 | relative cell number [11]: 89 ± 3.5 | relative cell number [12]: 84 ± 3.7 | relative cell number (sgRNA knockout: sgHSF2, 10 nM): 101 ± 4.7 | relative cell number (sgRNA knockout: sgHSF2, 100 nM): 93.3 ± 7.5 | relative cell number [13]: 89 ± 7.9 | relative cell number [14]: 82.1 ± 4.7 | relative cell number (sgRNA knockout: sgKEAP1, 10 nM): 96.3 ± 18 | relative cell number [15]: 84 ± 0.87 | relative cell number [16]: 80.6 ± 6.3 | relative cell number [17]: 89.3 ± 4.2 | relative cell number [18]: 107 ± 18 | relative cell number [19]: 95.2 ± 2.9 | relative cell number [20]: 76.2 ± 8.2 | relative cell number [21]: 101 ± 0.52 | relative cell number [22]: 91.4 ± 38 | relative cell number [23]: 93.5 ± 53 | relative cell number [24]: 102 ± 6.1 | relative cell number [25]: 80.2 ± 18 | relative cell number (sgRNA knockout: sgXBP1, 10 nM): 107 ± 7.3 | relative cell number (sgRNA knockout: sgXBP1, 100 nM): 107 ± 19 | relative cell number [26]: 67.5 ± 12 | relative cell number [27]: 84.6 ± 2.8

COc1cc(C(=O)N2CCC(N3CCN(C)CC3)CC2)ccc1Nc1ncc2c(n1)N(C)c1ccccc1C(=O)N2C [LRRK2IN1]
relative cell number (sgRNA knockout: sgATF3, 10 nM): 125 ± 11 | relative cell number (sgRNA knockout: sgATF3, 100 nM): 109 ± 1.7 | relative cell number [1]: 80.9 ± 1.1 | relative cell number [2]: 41.8 ± 3.6 | relative cell number (sgRNA knockout: sgATF4, 10 nM): 109 ± 10 | relative cell number (sgRNA knockout: sgATF4, 100 nM): 85.5 ± 4.2 | relative cell number [3]: 67.1 ± 2.8 | relative cell number [4]: 37.1 ± 5.4 | relative cell number (sgRNA knockout: sgATF6, 10 nM): 96.9 ± 16 | relative cell number (sgRNA knockout: sgATF6, 100 nM): 77.9 ± 1.1 | relative cell number [5]: 61.5 ± 10 | relative cell number [6]: 37.1 ± 1.6 | relative cell number (sgRNA knockout: sgATG7, 10 nM): 142 ± 14 | relative cell number (sgRNA knockout: sgATG7, 100 nM): 101 ± 11 | relative cell number [7]: 78.8 ± 12 | relative cell number [8]: 26.1 ± 4.8 | relative cell number (sgRNA knockout: sgERN1, 10 nM): 118 ± 23 | relative cell number (sgRNA knockout: sgERN1, 100 nM): 89.7 ± 12 | relative cell number [9]: 66.9 ± 12 | relative cell number [10]: 43.4 ± 9.5 | relative cell number (sgRNA knockout: sgHSF1, 10 nM): 123 ± 12 | relative cell number (sgRNA knockout: sgHSF1, 100 nM): 85.55 ± 0.49 | relative cell number [11]: 75.8 ± 8.9 | relative cell number [12]: 32.1 ± 12 | relative cell number (sgRNA knockout: sgHSF2, 10 nM): 117 ± 22 | relative cell number (sgRNA knockout: sgHSF2, 100 nM): 89.1 ± 8.4 | relative cell number [13]: 67.8 ± 6.7 | relative cell number [14]: 34.5 ± 6 | relative cell number (sgRNA knockout: sgKEAP1, 10 nM): 112 ± 17 | relative cell number [15]: 82.9 ± 4.6 | relative cell number [16]: 66.5 ± 2 | relative cell number [17]: 37 ± 4.5 | relative cell number [18]: 99.3 ± 3.5 | relative cell number [19]: 91 ± 5.5 | relative cell number [20]: 57.5 ± 2.9 | relative cell number [21]: 40.9 ± 11 | relative cell number [22]: 84.6 ± 7.2 | relative cell number [23]: 110 ± 2.1 | relative cell number [24]: 67.4 ± 11 | relative cell number [25]: 30.1 ± 16 | relative cell number (sgRNA knockout: sgXBP1, 10 nM): 111 ± 5 | relative cell number (sgRNA knockout: sgXBP1, 100 nM): 113 ± 18 | relative cell number [26]: 57.4 ± 9.2 | relative cell number [27]: 32.7 ± 6.5

C[C@@]1(C(=O)Nc2ccc(F)nc2)CCCN1c1nc(Nc2cc(C3CC3)n[nH]2)c2cccn2n1
relative cell number (sgRNA knockout: sgATF3, 10 nM): 81.7 ± 19 | relative cell number (sgRNA knockout: sgATF3, 100 nM): 91.7 ± 9.9 | relative cell number [1]: 60.3 ± 4.9 | relative cell number [2]: 73.2 ± 30 | relative cell number (sgRNA knockout: sgATF4, 10 nM): 98.5 ± 10 | relative cell number (sgRNA knockout: sgATF4, 100 nM): 82.8 ± 7.5 | relative cell number [3]: 72.7 ± 6.1 | relative cell number [4]: 59.4 ± 5 | relative cell number (sgRNA knockout: sgATF6, 10 nM): 74.8 ± 14 | relative cell number (sgRNA knockout: sgATF6, 100 nM): 94.6 ± 3 | relative cell number [5]: 54.8 ± 7.9 | relative cell number [6]: 76 ± 29 | relative cell number (sgRNA knockout: sgATG7, 10 nM): 95.4 ± 30 | relative cell number (sgRNA knockout: sgATG7, 100 nM): 94.3 ± 25 | relative cell number [7]: 84.3 ± 26 | relative cell number [8]: 72.1 ± 22 | relative cell number (sgRNA knockout: sgERN1, 10 nM): 76.4 ± 27 | relative cell number (sgRNA knockout: sgERN1, 100 nM): 107 ± 34 | relative cell number [9]: 73.3 ± 22 | relative cell number [10]: 63.4 ± 1.1 | relative cell number (sgRNA knockout: sgHSF1, 10 nM): 88.6 ± 9 | relative cell number (sgRNA knockout: sgHSF1, 100 nM): 77.5 ± 28 | relative cell number [11]: 67.9 ± 4.4 | relative cell number [12]: 67.2 ± 0.5 | relative cell number (sgRNA knockout: sgHSF2, 10 nM): 98.2 ± 20 | relative cell number (sgRNA knockout: sgHSF2, 100 nM): 87.7 ± 7.7 | relative cell number [13]: 79.5 ± 10 | relative cell number [14]: 64.1 ± 13 | relative cell number (sgRNA knockout: sgKEAP1, 10 nM): 99.6 ± 22 | relative cell number [15]: 96.1 ± 36 | relative cell number [16]: 67.3 ± 7.1 | relative cell number [17]: 59.2 ± 5.9 | relative cell number [18]: 83.3 ± 9.1 | relative cell number [19]: 78.8 ± 17 | relative cell number [20]: 79.2 ± 20 | relative cell number [21]: 68.3 ± 44 | relative cell number [22]: 103 ± 15 | relative cell number [23]: 82.6 ± 4.8 | relative cell number [24]: 82.4 ± 19 | relative cell number [25]: 72.1 ± 9.3 | relative cell number (sgRNA knockout: sgXBP1, 10 nM): 114 ± 4.6 | relative cell number (sgRNA knockout: sgXBP1, 100 nM): 78.6 ± 26 | relative cell number [26]: 64.2 ± 5.8 | relative cell number [27]: 80 ± 7.1
